The text below walks through data of article PMC10314917.

The chains behind the UniProt entries cited, without tags or fusion partners.
UniProt Q9UBU8: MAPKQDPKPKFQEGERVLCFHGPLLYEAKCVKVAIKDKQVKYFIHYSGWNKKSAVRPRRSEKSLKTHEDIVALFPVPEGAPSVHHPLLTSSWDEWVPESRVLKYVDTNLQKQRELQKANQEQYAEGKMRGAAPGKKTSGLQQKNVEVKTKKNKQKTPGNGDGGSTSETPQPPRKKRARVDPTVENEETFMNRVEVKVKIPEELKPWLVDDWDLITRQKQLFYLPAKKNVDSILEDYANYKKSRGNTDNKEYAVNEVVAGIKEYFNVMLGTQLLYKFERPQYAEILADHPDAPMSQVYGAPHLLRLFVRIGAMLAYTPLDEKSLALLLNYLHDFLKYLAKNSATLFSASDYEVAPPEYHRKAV
UniProt Q9Y5B9: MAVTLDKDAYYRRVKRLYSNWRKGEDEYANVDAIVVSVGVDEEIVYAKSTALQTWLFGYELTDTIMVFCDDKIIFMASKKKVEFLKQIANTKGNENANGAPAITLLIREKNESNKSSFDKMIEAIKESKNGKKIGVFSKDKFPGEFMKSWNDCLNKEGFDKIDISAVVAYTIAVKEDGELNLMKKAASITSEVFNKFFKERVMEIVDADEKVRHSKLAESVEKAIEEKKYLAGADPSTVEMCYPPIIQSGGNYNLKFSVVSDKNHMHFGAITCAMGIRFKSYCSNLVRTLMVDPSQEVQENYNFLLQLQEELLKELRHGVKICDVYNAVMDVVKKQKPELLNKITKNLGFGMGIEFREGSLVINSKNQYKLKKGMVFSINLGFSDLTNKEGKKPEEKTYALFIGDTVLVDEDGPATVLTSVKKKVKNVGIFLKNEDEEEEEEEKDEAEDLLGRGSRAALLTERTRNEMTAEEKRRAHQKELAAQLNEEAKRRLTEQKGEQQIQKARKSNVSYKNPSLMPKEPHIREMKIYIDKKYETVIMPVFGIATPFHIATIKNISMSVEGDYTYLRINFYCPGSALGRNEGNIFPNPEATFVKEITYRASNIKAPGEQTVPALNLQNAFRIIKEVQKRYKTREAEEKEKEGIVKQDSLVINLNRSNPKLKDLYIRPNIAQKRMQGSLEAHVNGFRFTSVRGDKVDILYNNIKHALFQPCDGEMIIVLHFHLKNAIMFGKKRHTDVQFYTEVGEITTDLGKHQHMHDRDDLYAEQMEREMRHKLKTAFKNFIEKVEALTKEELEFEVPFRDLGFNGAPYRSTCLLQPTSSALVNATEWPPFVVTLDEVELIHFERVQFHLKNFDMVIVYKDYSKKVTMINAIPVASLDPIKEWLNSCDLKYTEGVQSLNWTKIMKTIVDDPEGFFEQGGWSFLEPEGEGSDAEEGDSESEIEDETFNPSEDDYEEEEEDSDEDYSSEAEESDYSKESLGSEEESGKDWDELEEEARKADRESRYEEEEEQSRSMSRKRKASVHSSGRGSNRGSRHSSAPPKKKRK

Results are given in words; binding and its absence hold for the method and conditions named. In cells and extracts the contact can be indirect. Here binding means that the protein was enriched with, or labelled near, the bait; the list need not be complete.

The target in assay [1] is T1, XPC (human (endogenous in U2OS)) (UniProt Q01831).
T1 sequence: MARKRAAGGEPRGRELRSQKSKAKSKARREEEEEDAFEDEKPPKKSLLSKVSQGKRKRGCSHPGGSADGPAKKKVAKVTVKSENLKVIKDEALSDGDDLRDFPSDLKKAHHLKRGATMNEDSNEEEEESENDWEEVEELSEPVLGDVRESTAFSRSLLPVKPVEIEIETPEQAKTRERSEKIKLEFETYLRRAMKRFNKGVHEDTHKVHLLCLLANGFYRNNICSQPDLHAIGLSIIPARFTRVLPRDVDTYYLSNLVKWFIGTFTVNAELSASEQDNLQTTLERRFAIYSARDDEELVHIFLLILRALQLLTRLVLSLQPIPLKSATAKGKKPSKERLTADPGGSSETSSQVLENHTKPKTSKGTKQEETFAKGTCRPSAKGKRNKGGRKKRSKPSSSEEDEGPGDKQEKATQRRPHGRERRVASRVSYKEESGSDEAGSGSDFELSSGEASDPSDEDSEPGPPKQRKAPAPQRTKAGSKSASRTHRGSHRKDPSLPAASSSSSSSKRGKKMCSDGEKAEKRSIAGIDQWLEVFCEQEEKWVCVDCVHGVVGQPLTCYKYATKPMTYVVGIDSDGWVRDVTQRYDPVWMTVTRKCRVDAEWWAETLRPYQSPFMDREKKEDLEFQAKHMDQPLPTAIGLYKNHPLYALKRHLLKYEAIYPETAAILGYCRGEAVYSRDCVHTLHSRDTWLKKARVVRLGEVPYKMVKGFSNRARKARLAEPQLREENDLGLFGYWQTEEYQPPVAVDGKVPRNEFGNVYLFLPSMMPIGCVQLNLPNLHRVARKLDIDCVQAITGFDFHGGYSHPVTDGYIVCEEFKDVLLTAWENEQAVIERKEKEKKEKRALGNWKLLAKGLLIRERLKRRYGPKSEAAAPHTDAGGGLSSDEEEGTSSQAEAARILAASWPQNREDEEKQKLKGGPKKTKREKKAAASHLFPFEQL
The experiment in a line: affinity purification with mass spectrometry; complexes pulled down from solubilized U2OS cell lysates with an anti-endogenous XPC antibody; mass spectrometry.

In assay [2] the target is MRG15 (MORF4-Related Gene on chromosome 15) conjugated with the Flag tag (human) (UniProt Q9UBU8). The assay is described as follows: affinity purification with mass spectrometry; anti-Flag M2 affinity gel incubated with 500 µg whole-cell lysate (NETN buffer) of transfected U2OS cells overnight at 4 °C; eluted with 3x Flag peptide; eluates analysed by mass spectrometry.

Consider “SPT16 (SuPpressor of Ty 16) (from UniProt Q9Y5B9 1-1047)”, for which the binding result in assay [1] and in assay [2] was “binds” in each case.
